# Experimental data taken from the supplement of paper PMC12067093, “Discovery and optimisation of a covalent ligand for TRIM25 and its application to targeted protein ubiquitination” (Chemical Science, 2025).
# By UniProt entry, the sequences of proteins in these tests, tags left out. Where a name states a change or a piece, a line headed by the entry shows the natural chain unless it says otherwise.
# UniProt Q9H2Y7: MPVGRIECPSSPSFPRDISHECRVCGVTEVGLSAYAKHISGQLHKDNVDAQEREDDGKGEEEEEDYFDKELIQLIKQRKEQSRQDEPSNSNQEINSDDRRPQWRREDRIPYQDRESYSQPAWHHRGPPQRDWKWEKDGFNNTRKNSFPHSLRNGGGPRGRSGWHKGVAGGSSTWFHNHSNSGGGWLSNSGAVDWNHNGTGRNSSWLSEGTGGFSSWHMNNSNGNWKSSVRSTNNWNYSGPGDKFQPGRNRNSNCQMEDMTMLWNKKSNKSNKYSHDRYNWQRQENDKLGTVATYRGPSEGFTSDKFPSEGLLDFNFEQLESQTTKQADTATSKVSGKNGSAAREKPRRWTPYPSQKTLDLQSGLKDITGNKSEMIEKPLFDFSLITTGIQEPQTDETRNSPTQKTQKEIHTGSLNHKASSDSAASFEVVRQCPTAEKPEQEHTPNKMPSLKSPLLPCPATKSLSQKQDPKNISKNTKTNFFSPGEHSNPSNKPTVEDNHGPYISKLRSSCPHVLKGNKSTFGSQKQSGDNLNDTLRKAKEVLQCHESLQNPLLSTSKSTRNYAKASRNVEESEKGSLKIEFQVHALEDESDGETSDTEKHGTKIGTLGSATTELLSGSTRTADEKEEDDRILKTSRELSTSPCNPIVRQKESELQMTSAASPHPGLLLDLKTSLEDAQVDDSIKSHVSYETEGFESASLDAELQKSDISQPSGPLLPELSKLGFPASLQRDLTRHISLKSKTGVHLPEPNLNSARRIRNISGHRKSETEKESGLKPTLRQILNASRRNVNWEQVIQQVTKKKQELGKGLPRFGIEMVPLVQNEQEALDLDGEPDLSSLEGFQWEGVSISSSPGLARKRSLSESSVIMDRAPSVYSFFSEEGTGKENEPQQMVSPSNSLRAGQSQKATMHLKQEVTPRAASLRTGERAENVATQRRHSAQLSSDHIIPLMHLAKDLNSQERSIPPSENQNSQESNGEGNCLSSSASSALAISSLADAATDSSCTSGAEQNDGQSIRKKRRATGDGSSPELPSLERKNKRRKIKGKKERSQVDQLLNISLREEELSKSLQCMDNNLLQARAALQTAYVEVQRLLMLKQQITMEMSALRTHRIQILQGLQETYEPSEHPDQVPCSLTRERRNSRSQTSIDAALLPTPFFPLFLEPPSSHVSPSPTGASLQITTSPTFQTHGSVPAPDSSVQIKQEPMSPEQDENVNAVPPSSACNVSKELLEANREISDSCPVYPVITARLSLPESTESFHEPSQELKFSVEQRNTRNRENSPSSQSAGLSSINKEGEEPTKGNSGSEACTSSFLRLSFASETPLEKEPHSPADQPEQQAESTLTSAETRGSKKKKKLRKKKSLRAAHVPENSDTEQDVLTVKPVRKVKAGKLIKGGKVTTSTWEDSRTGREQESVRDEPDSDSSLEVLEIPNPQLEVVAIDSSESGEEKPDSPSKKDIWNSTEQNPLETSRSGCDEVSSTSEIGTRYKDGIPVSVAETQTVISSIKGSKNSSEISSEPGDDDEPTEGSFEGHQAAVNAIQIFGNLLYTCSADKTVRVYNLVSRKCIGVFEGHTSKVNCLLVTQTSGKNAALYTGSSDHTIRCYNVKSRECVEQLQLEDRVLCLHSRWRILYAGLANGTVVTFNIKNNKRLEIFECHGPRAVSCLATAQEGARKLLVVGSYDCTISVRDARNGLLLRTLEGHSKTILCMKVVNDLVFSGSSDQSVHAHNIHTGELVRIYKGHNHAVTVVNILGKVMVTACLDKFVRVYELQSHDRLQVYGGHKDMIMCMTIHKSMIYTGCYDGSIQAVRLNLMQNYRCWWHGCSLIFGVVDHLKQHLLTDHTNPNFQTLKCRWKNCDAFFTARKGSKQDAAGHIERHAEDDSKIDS
# Some of the results follow.
# Molecular target: ZNF106_Q9H2Y7-2_7_CILCHIVYSSK (UniProt Q9H2Y7)
# Test: probe-labelled cysteine peptide fold change vs DMSO (competition) (log2 fold change); higher = less target engagement (more negative = stronger competition)
# Details: THP-1, incubation time: 4 h
# 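Note: competitive profiling in live THP-1 cells: cysteine peptides tagged with an iodoacetamide desthiobiotin (IA-DTB) probe, intensity after compound treatment relative to DMSO-treated cells.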
compound,measurement,setting,value
Cc1cc(C(=O)N2CCCN(C(=O)CCl)CC2)ccc1-c1ccccc1 [compound 10],probe-labelled cysteine peptide fold change,10 µM,0.024
same,probe-labelled cysteine peptide fold change,50 µM,-0.0149
